This is one part of the list. The data scatter; read single values as rough.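 Tm was set to 64 °C where no melting was found, and many curves are irregular.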
Compound: CCc1cnccc1C(=O)Nc1cc2c(cc1F)NC(=O)CC2
Assay: melting temperature shift (DMSO Tm minus MBE1-treated Tm) in cellular thermal proteome profiling; higher = less thermal stabilization by MBE1 (negative = stabilized by MBE1)
Details: A375

By UniProt entry, the sequences of proteins in these tests, tags left out. Where a name states a change or a piece, a line headed by the entry shows the natural chain unless it says otherwise.
UniProt P42566: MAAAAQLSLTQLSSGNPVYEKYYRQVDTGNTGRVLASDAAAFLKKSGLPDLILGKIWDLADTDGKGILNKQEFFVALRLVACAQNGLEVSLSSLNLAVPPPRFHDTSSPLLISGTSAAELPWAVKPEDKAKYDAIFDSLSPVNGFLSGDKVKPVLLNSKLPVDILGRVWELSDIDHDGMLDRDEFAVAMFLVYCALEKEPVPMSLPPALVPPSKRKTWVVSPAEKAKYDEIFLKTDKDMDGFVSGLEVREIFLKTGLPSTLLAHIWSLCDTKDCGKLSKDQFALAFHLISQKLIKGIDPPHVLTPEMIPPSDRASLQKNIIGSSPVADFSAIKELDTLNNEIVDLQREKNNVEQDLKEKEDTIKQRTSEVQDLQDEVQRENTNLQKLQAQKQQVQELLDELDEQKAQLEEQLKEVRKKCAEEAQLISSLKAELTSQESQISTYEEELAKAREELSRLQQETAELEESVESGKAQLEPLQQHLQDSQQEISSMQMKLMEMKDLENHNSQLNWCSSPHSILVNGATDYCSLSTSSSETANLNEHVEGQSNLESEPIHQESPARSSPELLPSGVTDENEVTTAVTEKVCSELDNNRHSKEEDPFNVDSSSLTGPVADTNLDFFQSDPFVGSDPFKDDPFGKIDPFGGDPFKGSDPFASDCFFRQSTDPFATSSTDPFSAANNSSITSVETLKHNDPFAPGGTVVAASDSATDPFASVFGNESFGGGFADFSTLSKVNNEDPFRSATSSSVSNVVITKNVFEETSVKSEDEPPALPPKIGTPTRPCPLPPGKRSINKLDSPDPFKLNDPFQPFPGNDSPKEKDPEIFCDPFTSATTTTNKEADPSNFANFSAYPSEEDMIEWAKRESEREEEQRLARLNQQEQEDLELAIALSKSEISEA
UniProt P49821, whole entry: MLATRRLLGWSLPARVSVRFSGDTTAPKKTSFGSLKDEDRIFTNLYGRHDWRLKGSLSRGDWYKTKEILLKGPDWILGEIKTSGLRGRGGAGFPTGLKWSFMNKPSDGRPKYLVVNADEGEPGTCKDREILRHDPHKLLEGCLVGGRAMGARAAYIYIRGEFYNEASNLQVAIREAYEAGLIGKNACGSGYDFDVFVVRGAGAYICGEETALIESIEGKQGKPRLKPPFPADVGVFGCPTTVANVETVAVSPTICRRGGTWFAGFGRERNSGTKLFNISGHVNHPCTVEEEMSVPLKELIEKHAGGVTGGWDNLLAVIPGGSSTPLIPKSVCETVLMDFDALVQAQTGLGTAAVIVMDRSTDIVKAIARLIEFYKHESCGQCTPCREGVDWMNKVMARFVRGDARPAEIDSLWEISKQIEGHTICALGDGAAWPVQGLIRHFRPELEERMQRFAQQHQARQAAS
UniProt P49069: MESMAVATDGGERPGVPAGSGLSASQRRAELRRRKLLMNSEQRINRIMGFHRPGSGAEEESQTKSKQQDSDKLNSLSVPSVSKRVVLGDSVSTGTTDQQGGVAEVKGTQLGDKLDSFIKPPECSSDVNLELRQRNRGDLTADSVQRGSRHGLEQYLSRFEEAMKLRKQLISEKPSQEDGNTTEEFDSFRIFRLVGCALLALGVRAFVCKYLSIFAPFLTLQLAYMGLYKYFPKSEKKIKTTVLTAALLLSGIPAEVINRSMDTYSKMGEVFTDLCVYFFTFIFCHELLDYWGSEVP
UniProt P46736, whole entry: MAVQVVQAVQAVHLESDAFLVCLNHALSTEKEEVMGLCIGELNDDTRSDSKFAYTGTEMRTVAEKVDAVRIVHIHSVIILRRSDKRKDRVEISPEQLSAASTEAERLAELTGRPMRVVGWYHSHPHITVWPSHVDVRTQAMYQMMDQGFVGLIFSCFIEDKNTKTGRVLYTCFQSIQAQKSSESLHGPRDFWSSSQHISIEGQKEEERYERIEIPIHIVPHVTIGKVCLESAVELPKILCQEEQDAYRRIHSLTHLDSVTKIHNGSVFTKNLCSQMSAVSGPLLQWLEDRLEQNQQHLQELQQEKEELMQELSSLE
UniProt P49757: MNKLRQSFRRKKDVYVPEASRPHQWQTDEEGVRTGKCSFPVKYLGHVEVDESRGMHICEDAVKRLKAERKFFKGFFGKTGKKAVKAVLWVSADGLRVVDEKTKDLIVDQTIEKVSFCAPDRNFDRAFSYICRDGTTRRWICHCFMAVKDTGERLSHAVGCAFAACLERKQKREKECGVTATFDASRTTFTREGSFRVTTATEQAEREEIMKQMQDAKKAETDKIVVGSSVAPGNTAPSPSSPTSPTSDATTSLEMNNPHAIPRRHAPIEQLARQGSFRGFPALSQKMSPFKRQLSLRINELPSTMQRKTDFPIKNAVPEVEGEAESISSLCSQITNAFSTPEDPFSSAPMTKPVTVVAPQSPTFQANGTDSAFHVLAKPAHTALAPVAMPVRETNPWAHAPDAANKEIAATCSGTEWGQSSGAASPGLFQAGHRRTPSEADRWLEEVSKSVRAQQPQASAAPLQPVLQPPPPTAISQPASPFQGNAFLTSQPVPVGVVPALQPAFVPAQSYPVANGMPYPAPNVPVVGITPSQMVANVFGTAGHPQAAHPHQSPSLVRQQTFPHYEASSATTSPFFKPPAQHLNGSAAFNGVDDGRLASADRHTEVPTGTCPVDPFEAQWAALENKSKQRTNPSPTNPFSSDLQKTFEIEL
UniProt P42892: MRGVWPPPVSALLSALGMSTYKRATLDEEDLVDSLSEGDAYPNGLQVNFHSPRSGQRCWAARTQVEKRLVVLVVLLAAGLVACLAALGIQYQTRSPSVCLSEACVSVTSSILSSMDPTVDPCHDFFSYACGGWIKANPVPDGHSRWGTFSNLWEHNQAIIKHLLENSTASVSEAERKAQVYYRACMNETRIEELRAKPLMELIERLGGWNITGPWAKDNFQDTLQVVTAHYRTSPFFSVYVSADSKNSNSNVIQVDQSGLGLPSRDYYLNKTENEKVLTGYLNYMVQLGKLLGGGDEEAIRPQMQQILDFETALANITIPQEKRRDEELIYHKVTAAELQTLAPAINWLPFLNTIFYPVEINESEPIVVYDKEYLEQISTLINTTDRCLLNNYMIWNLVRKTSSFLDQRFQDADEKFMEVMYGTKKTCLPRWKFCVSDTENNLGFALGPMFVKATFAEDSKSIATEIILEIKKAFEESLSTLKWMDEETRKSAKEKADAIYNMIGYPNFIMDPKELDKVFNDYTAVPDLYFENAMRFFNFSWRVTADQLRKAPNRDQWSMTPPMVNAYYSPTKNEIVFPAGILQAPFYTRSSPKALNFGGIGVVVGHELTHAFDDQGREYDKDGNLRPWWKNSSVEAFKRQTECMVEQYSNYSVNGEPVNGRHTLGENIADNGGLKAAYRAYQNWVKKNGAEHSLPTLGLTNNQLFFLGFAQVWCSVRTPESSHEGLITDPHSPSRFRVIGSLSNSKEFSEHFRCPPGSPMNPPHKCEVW
UniProt P51649: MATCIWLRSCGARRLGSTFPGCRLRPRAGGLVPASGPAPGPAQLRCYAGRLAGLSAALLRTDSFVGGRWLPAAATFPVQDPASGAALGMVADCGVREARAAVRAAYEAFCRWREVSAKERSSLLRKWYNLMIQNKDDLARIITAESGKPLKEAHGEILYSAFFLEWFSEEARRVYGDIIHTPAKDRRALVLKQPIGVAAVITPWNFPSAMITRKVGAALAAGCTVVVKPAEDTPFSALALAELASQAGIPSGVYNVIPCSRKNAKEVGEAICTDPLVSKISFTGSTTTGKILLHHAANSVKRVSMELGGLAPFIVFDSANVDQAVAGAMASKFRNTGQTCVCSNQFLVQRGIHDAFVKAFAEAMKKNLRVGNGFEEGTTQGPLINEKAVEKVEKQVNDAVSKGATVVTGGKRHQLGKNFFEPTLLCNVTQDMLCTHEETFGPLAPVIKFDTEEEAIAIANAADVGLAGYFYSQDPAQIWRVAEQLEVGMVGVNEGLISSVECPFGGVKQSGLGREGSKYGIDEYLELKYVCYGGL
UniProt P42679: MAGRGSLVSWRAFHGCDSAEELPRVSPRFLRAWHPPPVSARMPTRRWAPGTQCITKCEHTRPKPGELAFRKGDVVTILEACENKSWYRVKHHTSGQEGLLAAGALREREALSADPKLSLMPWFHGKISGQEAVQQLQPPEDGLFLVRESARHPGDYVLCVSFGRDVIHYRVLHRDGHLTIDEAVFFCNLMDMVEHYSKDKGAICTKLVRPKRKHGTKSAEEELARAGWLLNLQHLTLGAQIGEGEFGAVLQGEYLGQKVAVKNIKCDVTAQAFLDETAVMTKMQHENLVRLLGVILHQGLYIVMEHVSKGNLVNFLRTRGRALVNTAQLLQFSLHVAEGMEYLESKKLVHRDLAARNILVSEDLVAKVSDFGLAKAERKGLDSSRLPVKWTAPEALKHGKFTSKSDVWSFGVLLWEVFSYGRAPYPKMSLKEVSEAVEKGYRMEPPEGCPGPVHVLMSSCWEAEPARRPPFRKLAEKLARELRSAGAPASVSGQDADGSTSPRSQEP
UniProt P42575: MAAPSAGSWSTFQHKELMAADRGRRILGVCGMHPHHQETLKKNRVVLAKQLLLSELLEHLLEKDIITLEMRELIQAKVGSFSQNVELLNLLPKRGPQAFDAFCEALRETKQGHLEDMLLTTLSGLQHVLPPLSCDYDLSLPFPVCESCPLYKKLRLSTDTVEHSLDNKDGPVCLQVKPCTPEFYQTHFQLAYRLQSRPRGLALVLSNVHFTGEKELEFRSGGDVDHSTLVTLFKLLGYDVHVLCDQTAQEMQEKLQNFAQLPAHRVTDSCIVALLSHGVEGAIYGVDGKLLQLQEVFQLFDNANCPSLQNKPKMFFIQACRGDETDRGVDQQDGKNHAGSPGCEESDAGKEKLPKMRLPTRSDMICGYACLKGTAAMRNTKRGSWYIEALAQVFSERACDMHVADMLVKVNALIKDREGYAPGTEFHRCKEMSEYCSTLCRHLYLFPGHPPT
UniProt P51797: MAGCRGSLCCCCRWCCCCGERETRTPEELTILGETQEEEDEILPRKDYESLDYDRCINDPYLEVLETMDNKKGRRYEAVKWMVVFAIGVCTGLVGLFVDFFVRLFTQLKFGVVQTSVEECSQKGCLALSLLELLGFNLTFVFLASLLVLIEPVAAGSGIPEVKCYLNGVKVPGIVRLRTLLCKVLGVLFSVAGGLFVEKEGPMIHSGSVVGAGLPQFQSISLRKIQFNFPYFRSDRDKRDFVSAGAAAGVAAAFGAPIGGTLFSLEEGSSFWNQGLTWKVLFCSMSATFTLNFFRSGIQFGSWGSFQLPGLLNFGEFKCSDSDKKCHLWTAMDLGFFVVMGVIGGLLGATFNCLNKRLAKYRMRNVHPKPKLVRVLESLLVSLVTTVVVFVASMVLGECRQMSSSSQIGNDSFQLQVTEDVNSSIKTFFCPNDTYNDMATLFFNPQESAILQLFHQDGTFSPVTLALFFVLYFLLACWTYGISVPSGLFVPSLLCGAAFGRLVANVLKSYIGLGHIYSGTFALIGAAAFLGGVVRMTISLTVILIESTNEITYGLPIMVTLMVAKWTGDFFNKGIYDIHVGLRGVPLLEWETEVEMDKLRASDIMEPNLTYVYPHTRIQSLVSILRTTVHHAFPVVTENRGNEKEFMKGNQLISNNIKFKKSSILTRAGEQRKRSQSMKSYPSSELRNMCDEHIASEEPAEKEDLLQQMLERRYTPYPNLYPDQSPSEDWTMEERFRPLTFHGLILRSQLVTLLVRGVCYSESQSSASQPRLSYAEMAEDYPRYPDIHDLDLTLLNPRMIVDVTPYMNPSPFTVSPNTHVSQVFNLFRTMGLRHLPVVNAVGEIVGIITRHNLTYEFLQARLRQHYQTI
UniProt P51798: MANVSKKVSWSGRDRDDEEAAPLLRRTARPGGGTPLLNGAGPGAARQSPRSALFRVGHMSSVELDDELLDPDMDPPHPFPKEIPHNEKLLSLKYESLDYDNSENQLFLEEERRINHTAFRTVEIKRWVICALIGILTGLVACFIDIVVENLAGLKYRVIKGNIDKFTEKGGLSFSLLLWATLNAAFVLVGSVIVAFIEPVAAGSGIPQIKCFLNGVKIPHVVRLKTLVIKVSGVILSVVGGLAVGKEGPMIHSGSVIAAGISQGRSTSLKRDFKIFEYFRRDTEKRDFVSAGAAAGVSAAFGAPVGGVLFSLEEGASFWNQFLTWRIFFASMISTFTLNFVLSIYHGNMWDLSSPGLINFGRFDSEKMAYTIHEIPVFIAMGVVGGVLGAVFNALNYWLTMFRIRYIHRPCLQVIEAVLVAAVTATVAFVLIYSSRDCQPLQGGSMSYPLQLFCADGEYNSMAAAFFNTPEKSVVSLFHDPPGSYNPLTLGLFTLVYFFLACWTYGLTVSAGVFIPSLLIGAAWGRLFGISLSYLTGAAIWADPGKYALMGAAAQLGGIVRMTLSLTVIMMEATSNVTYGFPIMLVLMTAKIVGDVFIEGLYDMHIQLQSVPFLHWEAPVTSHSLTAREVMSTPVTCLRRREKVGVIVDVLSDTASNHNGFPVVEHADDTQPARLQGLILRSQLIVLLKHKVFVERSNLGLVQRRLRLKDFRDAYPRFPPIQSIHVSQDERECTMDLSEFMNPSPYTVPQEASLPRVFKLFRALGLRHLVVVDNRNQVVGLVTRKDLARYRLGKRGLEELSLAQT

Work on UniProt P51178 yielded a melting temperature shift (MBE1 concentration: 100 nM) of -0.238 °C and a melting temperature shift (MBE1 concentration: 1 uM) of 0.128 °C.
In the case of CAPZB (UniProt P47756), the melting temperature shift (MBE1 concentration: 100 nM) is reported as -0.47 °C and the melting temperature shift (MBE1 concentration: 1 uM) is reported as -1.19 °C.
For RPL5 (UniProt P46777), the melting temperature shift (MBE1 concentration: 100 nM) was -0.623 °C and the melting temperature shift (MBE1 concentration: 1 uM) was 0.855 °C.
Work on EPS15 (UniProt P42566) yielded a melting temperature shift (MBE1 concentration: 100 nM) of 0.91 °C and a melting temperature shift (MBE1 concentration: 1 uM) of 0.605 °C.
For RPS10 (UniProt P46783), the melting temperature shift (MBE1 concentration: 100 nM) was -0.0305 °C and the melting temperature shift (MBE1 concentration: 1 uM) was 0.647 °C.
IDH3G (UniProt P51553) gave a melting temperature shift (MBE1 concentration: 100 nM) of -1.16 °C and a melting temperature shift (MBE1 concentration: 1 uM) of 1.5 °C.
With UniProt P50281 the melting temperature shift (MBE1 concentration: 100 nM) was 0.555 °C and the melting temperature shift (MBE1 concentration: 1 uM) was -1.54 °C.
Target UniProt P42677 has a melting temperature shift (MBE1 concentration: 100 nM) of 0.0794 °C and a melting temperature shift (MBE1 concentration: 1 uM) of 0.00611 °C.
In the case of PSMB3 (UniProt P49720), the melting temperature shift (MBE1 concentration: 100 nM) is reported as -4.1 °C and the melting temperature shift (MBE1 concentration: 1 uM) is reported as -2.65 °C.
In the case of NDUFV1 (UniProt P49821), the melting temperature shift (MBE1 concentration: 100 nM) is reported as -0.51 °C and the melting temperature shift (MBE1 concentration: 1 uM) is reported as 0.711 °C.
For RPL27A (UniProt P46776), the melting temperature shift (MBE1 concentration: 100 nM) was -0.556 °C and the melting temperature shift (MBE1 concentration: 1 uM) was -1.36 °C.
For RBMX (UniProt P38159), the melting temperature shift (MBE1 concentration: 100 nM) was -1.54 °C and the melting temperature shift (MBE1 concentration: 1 uM) was -2.27 °C.
CAMLG (UniProt P49069) gave a melting temperature shift (MBE1 concentration: 100 nM) of -2.2 °C and a melting temperature shift (MBE1 concentration: 1 uM) of -2.33 °C.
With NUDT2 (UniProt P50583) the melting temperature shift (MBE1 concentration: 100 nM) was 2.34 °C and the melting temperature shift (MBE1 concentration: 1 uM) was 1.72 °C.
For ACADSB (UniProt P45954), the melting temperature shift (MBE1 concentration: 100 nM) was -0.698 °C and the melting temperature shift (MBE1 concentration: 1 uM) was 0.636 °C.
With STT3A (UniProt P46977) the melting temperature shift (MBE1 concentration: 100 nM) was -0.423 °C and the melting temperature shift (MBE1 concentration: 1 uM) was 0.194 °C.
With HTT (UniProt P42858) the melting temperature shift (MBE1 concentration: 100 nM) was 0.867 °C and the melting temperature shift (MBE1 concentration: 1 uM) was 0.0794 °C.
Target HELZ (UniProt P42694) has a melting temperature shift (MBE1 concentration: 100 nM) of -1.43 °C and a melting temperature shift (MBE1 concentration: 1 uM) of -1.52 °C.
For BRCC3 (UniProt P46736), the melting temperature shift (MBE1 concentration: 100 nM) was -3.02 °C and the melting temperature shift (MBE1 concentration: 1 uM) was 0.738 °C.
Target NUMB (UniProt P49757) has a melting temperature shift (MBE1 concentration: 100 nM) of 0.495 °C and a melting temperature shift (MBE1 concentration: 1 uM) of 0.611 °C.
In the case of STAT5A (UniProt P42229), the melting temperature shift (MBE1 concentration: 100 nM) is reported as 0.701 °C and the melting temperature shift (MBE1 concentration: 1 uM) is reported as 0.555 °C.
Target FASN (UniProt P49327) has a melting temperature shift (MBE1 concentration: 100 nM) of -0.214 °C and a melting temperature shift (MBE1 concentration: 1 uM) of 0.446 °C.
For ALDH9A1 (UniProt P49189), the melting temperature shift (MBE1 concentration: 100 nM) was -1.29 °C and the melting temperature shift (MBE1 concentration: 1 uM) was -1.47 °C.
ECE1 (UniProt P42892) gave a melting temperature shift (MBE1 concentration: 100 nM) of -2.18 °C and a melting temperature shift (MBE1 concentration: 1 uM) of 0.452 °C.
Target RPS19 (UniProt P39019) has a melting temperature shift (MBE1 concentration: 100 nM) of -0.592 °C and a melting temperature shift (MBE1 concentration: 1 uM) of 0.238 °C.
HCFC1 (UniProt P51610) showed a melting temperature shift (MBE1 concentration: 100 nM) of -0.657 °C and a melting temperature shift (MBE1 concentration: 1 uM) of 0.0201 °C.
Target UniProt P49840 has a melting temperature shift (MBE1 concentration: 100 nM) of -0.337 °C and a melting temperature shift (MBE1 concentration: 1 uM) of 0.403 °C.
With PREP (UniProt P48147) the melting temperature shift (MBE1 concentration: 100 nM) was -0.621 °C and the melting temperature shift (MBE1 concentration: 1 uM) was -0.461 °C.
Work on ALDH5A1 (UniProt P51649) yielded a melting temperature shift (MBE1 concentration: 100 nM) of -1.01 °C and a melting temperature shift (MBE1 concentration: 1 uM) of 0.0916 °C.
IGHMBP2 (UniProt P38935) gave a melting temperature shift (MBE1 concentration: 100 nM) of -0.75 °C and a melting temperature shift (MBE1 concentration: 1 uM) of -0.611 °C.
PIGA (UniProt P37287) gave a melting temperature shift (MBE1 concentration: 100 nM) of 0.57 °C and a melting temperature shift (MBE1 concentration: 1 uM) of -1.43 °C.
MATK (UniProt P42679) gave a melting temperature shift (MBE1 concentration: 100 nM) of 0.287 °C and a melting temperature shift (MBE1 concentration: 1 uM) of -0.873 °C.
With UniProt P42166 the melting temperature shift (MBE1 concentration: 100 nM) was -0.506 °C and the melting temperature shift (MBE1 concentration: 1 uM) was -0.141 °C.
UniProt P49356 was tested, and the melting temperature shift (MBE1 concentration: 100 nM) was 1.4 °C and the melting temperature shift (MBE1 concentration: 1 uM) was 0.794 °C.
CASP2 (UniProt P42575) showed a melting temperature shift (MBE1 concentration: 100 nM) of 3.13 °C and a melting temperature shift (MBE1 concentration: 1 uM) of -0.611 °C.
In the case of ARRB1 (UniProt P49407), the melting temperature shift (MBE1 concentration: 100 nM) is reported as -0.0469 °C and the melting temperature shift (MBE1 concentration: 1 uM) is reported as 0.215 °C.
Target UniProt P42356 has a melting temperature shift (MBE1 concentration: 100 nM) of 0.69 °C and a melting temperature shift (MBE1 concentration: 1 uM) of 0.666 °C.
In the case of CLCN6 (UniProt P51797), the melting temperature shift (MBE1 concentration: 100 nM) is reported as -1.57 °C and the melting temperature shift (MBE1 concentration: 1 uM) is reported as -1.01 °C.
SARS (UniProt P49591) gave a melting temperature shift (MBE1 concentration: 100 nM) of -0.704 °C and a melting temperature shift (MBE1 concentration: 1 uM) of 0.376 °C.
NUP153 (UniProt P49790) was tested, and the melting temperature shift (MBE1 concentration: 100 nM) was -0.639 °C and the melting temperature shift (MBE1 concentration: 1 uM) was 0.165 °C.
Work on GSS (UniProt P48637) yielded a melting temperature shift (MBE1 concentration: 100 nM) of -0.993 °C and a melting temperature shift (MBE1 concentration: 1 uM) of -0.766 °C.
Target SEPHS1 (UniProt P49903) has a melting temperature shift (MBE1 concentration: 100 nM) of -3.55 °C and a melting temperature shift (MBE1 concentration: 1 uM) of 0.065 °C.
Work on CSK (UniProt P41240) yielded a melting temperature shift (MBE1 concentration: 100 nM) of 0.629 °C and a melting temperature shift (MBE1 concentration: 1 uM) of 0.293 °C.
For CLCN7 (UniProt P51798), the melting temperature shift (MBE1 concentration: 100 nM) was -0.382 °C and the melting temperature shift (MBE1 concentration: 1 uM) was -0.212 °C.
TXLNA (UniProt P40222) gave a melting temperature shift (MBE1 concentration: 100 nM) of -0.698 °C and a melting temperature shift (MBE1 concentration: 1 uM) of 0.0794 °C.
Target IDH3A (UniProt P50213) has a melting temperature shift (MBE1 concentration: 100 nM) of 0.168 °C and a melting temperature shift (MBE1 concentration: 1 uM) of -0.396 °C.
For FNTA (UniProt P49354), the melting temperature shift (MBE1 concentration: 100 nM) was -0.396 °C and the melting temperature shift (MBE1 concentration: 1 uM) was -0.159 °C.
NAA10 (UniProt P41227) was tested, and the melting temperature shift (MBE1 concentration: 100 nM) was -0.389 °C and the melting temperature shift (MBE1 concentration: 1 uM) was -0.201 °C.

Source: the supplement of paper PMC12595434, “Development of retinoid nuclear receptor pathway antagonists through targeting aldehyde dehydrogenase 1A3” (iScience, 2025)
